# Data as given in PubChem BioAssay AID1159508 (Drosophila RNAi Screening Center, 2015)
# Purpose: 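Viability reference data for a dsRNA library against RNA-binding protein genes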
# Cell system: Drosophila S2R+ cells
# Knock-down reagent: long dsRNA against Drosophila genes
# Duration: 5 days
# Measured: 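Total ATP per well measured by luciferase luminescence after 5 days, expressed as z-scores for each replicate and as their average across up to three replicates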
# Scale: mean ATP z-score and ATP z-score: higher = more total ATP luminescence
# Active means: In these data the active calls have mean ATP z-score at about -2 or lower, or at about 2 or higher
# Meaning of the calls: active = strong ATP change (up or down); inactive = no strong ATP change
# The deposit covers 812 reagents; shown is a random part of them. 18 of all reagents (2.2%) count as active. 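Calls include both increased and decreased ATP; roughly one in four reagents has no third replicate value.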 The numbers tell different reagents against one gene apart. Not stated in the record: the amount of reagent.
target gene,reagent,mean ATP z-score,"ATP z-score, replicate 1","ATP z-score, replicate 2","ATP z-score, replicate 3",Call
Srp72 (GeneID 42439),1,1.09,0.928,1.11,,inactive
Srp72 (GeneID 42439),2,0.0327,-0.0158,0.0771,,inactive
dbe (GeneID 33269),1,-1.04,-0.994,-0.97,-0.968,inactive
dbe (GeneID 33269),2,-0.405,-0.473,-0.453,-0.211,inactive
TH1 (GeneID 32607),1,1.39,1.21,1.39,,inactive
TH1 (GeneID 32607),2,-0.166,-0.345,-0.181,0.0599,inactive
Mettl3 (GeneID 42844),1,0.871,0.74,0.825,0.878,inactive
Mettl3 (GeneID 42844),2,-0.205,-0.353,-0.218,-0.00605,inactive
CG4806 (GeneID 37948),1,-0.452,-0.665,-0.181,,inactive
CG4806 (GeneID 37948),2,-0.0629,-0.441,-0.0644,0.329,inactive
TBPH (GeneID 37781),1,0.153,-0.0194,0.15,0.3,inactive
TBPH (GeneID 37781),2,0.406,0.0854,0.26,0.794,inactive
DENR (GeneID 32679),1,0.483,0.226,0.415,0.715,inactive
DENR (GeneID 32679),2,-0.052,-0.453,0.00253,0.305,inactive
Slu7 (GeneID 43427),1,0.732,0.534,0.835,,inactive
Slu7 (GeneID 43427),2,-0.269,-0.71,-0.653,0.607,inactive
CG15014 (GeneID 38533),1,0.0898,-0.474,0.298,0.428,inactive
CG15014 (GeneID 38533),2,0.712,0.176,0.675,1.15,inactive
Msp300 (GeneID 3771968),1,-0.536,-0.694,-0.31,,inactive
Msp300 (GeneID 3771968),2,0.377,0.0507,0.275,0.732,inactive
Hen1 (GeneID 36301),1,-0.37,-0.477,-0.216,,inactive
Hen1 (GeneID 36301),2,0.119,-0.295,0.174,0.456,inactive
Dbp80 (GeneID 3354919),1,0.0135,-0.81,0.193,0.655,inactive
Dbp80 (GeneID 3354919),2,0.0302,-0.429,-0.0925,0.606,inactive
Lon (GeneID 40138),1,-0.599,-1,-0.576,-0.103,inactive
Lon (GeneID 40138),2,-1.15,-1.3,-0.861,,inactive
SmF (GeneID 36314),1,-0.156,-0.368,-0.282,0.213,inactive
SmF (GeneID 36314),2,0.234,-0.0737,0.333,0.397,inactive
B52 (GeneID 41670),1,-0.602,-0.787,-0.34,,inactive
B52 (GeneID 41670),2,0.157,-0.04,-0.0194,0.501,inactive
maca (GeneID 41892),1,-0.341,-0.569,-0.361,-0.0278,inactive
maca (GeneID 41892),2,-0.465,-0.548,-0.443,-0.314,inactive
CG9143 (GeneID 37296),1,-0.344,-0.917,-0.253,0.205,inactive
CG9143 (GeneID 37296),2,-0.324,-0.556,-0.28,-0.0728,inactive
lost (GeneID 40559),1,-0.146,-0.49,-0.292,0.371,inactive
lost (GeneID 40559),2,-0.313,-0.511,-0.0754,,inactive
sm (GeneID 37254),1,-0.617,-0.747,-0.652,-0.333,inactive
sm (GeneID 37254),2,1.32,0.861,0.991,1.84,inactive
SNRPG (GeneID 32636),1,-0.333,-0.445,-0.357,-0.134,inactive
SNRPG (GeneID 32636),2,0.605,-0.0822,0.855,0.926,inactive
su(w[a]) (GeneID 31054),1,0.46,0.212,0.42,0.659,inactive
su(w[a]) (GeneID 31054),2,-0.969,-0.983,-0.831,,inactive
Dcr-2 (GeneID 36993),1,0.872,0.452,1.18,,inactive
Dcr-2 (GeneID 36993),2,-0.884,-1.05,-0.929,-0.507,inactive
mub (GeneID 40436),1,-1.11,-1.38,-0.911,-0.834,inactive
mub (GeneID 40436),2,0.323,0.185,0.419,,inactive
sbr (GeneID 43944),1,-0.113,-0.403,0.192,,inactive
sbr (GeneID 43944),2,-1.01,-1.13,-0.93,-0.767,inactive
SmB (GeneID 34426),1,-0.384,-0.691,-0.339,-0.0493,inactive
SmB (GeneID 34426),2,0.35,-0.118,-0.00664,1.11,inactive
DIP1 (GeneID 43981),1,0.808,-0.137,0.762,1.64,inactive
DIP1 (GeneID 43981),2,-0.122,-0.169,-0.0865,-0.0856,inactive
LS2 (GeneID 37681),1,-0.0229,-0.321,-0.0748,0.331,inactive
LS2 (GeneID 37681),2,-0.0833,-0.218,0.0622,,inactive
APC4 (GeneID 31835),1,0.366,-0.253,0.544,0.736,inactive
APC4 (GeneID 31835),2,2.09,1.69,1.85,2.35,active
Atx-1 (GeneID 31624),1,0.903,0.531,0.632,1.37,inactive
Atx-1 (GeneID 31624),2,-0.195,-0.819,-0.0941,0.367,inactive
pasha (GeneID 43728),1,0.216,-0.266,0.67,,inactive
pasha (GeneID 43728),2,-0.541,-0.98,-0.413,-0.125,inactive
CG10909 (GeneID 41581),1,0.0803,-0.355,0.103,0.476,inactive
CG10909 (GeneID 41581),2,0.879,-0.207,0.64,2.03,inactive
me31B (GeneID 34364),1,0.451,0.293,0.391,0.581,inactive
me31B (GeneID 34364),2,0.883,0.233,0.664,1.58,inactive
CG7903 (GeneID 43554),1,0.0757,-0.161,0.303,,inactive
CG7903 (GeneID 43554),2,0.749,0.657,0.744,,inactive
CG12493 (GeneID 38575),1,0.205,-0.221,0.376,0.421,inactive
CG12493 (GeneID 38575),2,0.322,0.131,0.288,0.485,inactive
mRF1 (GeneID 34720),1,-0.329,-0.435,-0.335,-0.153,inactive
mRF1 (GeneID 34720),2,1.31,1.08,1.38,,inactive
pit (GeneID 42595),1,0.8,0.489,0.631,1.12,inactive
pit (GeneID 42595),2,0.419,0.227,0.557,,inactive
Spx (GeneID 31558),1,-1.99,-2.03,-1.79,-1.76,inactive
Spx (GeneID 31558),2,-1.01,-1.23,-0.665,,inactive
srl (GeneID 40562),1,1.13,0.572,1.27,1.33,inactive
srl (GeneID 40562),2,0.394,0.0513,0.286,0.769,inactive

Active calls, among the entries above:
target gene,reagent,mean ATP z-score,"ATP z-score, replicate 1","ATP z-score, replicate 2","ATP z-score, replicate 3",Call
APC4 (GeneID 31835),2,2.09,1.69,1.85,2.35,active
